{
  "source": "paper PMC5489165",
  "about": "“Identification of benzazole compounds that induce HIV-1 transcription” (PLoS ONE, 2017)",
  "test": "Caco-2 assay",
  "type": "in vitro ADME",
  "details": "human, Caco-2, Caco-2 Papp",
  "method": "Caco-2 cells obtained from ATCC were plated on filters of a 24-well Boyden chamber and allowed to replicate for five days. Prior to initiating a study, the integrity of the cell layer was assessed by measuring the transepithelial electrical resistance (TEER) values. […] After 1h, medium was removed from the bottom chamber. After completion of the assay, the integrity of the cell layer was measured by transfer of the fluorescent dye, Lucifer yellow, across the cell layer. Samples taken from the apical chamber at the start of the study and from the basal chamber at the end of the study were assessed for drug levels using LC-MS/MS technology and used to calculate the apparent permeability (Papp).",
  "data": [
    {"smiles": "CC(C)NCC(O)COc1ccc(CC(N)=O)cc1", "note": "(stereo not shown) [Atenolol, reference compound]", "values": [
      {"measurement": "Papp A→B at 1 h, 10 μM", "result": 2.3, "unit": "nm/s"}
    ]}
  ]
}
